Results as given in PubChem BioAssay AID485298 (National Center for Advancing Translational Sciences (NCATS), 2010).
The whole screen tested about 320,000 compounds, of which about 740 (0.23%) were called active. Inconclusive means that the source gave no clear call. Such entries were picked first, then a sample of the others. The call rests on the fitted dose curve; in most records, active means well fitted activation curve with a large enough effect; inconclusive means small, poorly fitted or top-dose-only effect; inactive means no such curve, though single readings can be large or run the other way. A potency beside an inconclusive call is a rough fit, not a confirmed value.

Assay: qHTS Assay for Small Molecule Inhibitors of Mitochondrial Division or Activators of Mitochondrial Fusion; further: nearly all actives have a fitted effect of over 45% in size
Conditions: S. cerevisiae fusion-defective mutant growth rescue, CellTiterGlo 48 h; series mostly up to 46.1 µM
Summary of the method: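 Growth-rescue viability read-out: after 48 h at the non-permissive 37C in glycerol/ethanol YPEG, yeast mitochondrial fusion mutants are measured by CellTiterGlo luminescence; compounds (23 nl pinned per well) restoring growth score as division inhibitors or fusion activators.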
Potency means the concentration at half of the fitted maximal effect.

Compound | Potency
CC(=O)N1C(C)c2ccccc2C(C)(C)CC12CCCCC2 (stereo not given) | inconclusive: 12.6 µM [activator, partial curve]
COc1n[nH]c(C(=O)Nc2cc(F)ccc2C)c1[N+](=O)[O-] | active: 7.08 µM
COc1ccc(-c2cc(C(=O)N3CCCC(C(F)(F)F)C3)c3ccccc3n2)cc1OC (stereo not given) | inconclusive: 31.6 µM [activator, single point]
Cc1ccc(-c2cc(C(=O)N3CCCc4ccccc43)no2)cc1 | inconclusive: 15.8 µM [activator, single point]
CCOc1cc(C)c(S(=O)(=O)N2CCCCC2)cc1C | inconclusive: 11.2 µM [activator, partial curve]
CCOC(=O)c1sc2nc(C)nc(N3CCN(c4ncccn4)CC3)c2c1C | inconclusive: 6.31 µM [activator, partial curve]
NC(=O)C1CCN(C(=O)CNC(=O)c2ccccc2)CC1 | inconclusive: 14.1 µM [activator, partial curve]
O=S(=O)(NCc1ccccc1)c1ccc(S(=O)(=O)N(Cc2ccccn2)C2CCCC2)cc1 | inconclusive: 14.1 µM [activator, single point]
CC(C)CC(=O)Nc1cccc(-c2csc(-c3ccccc3)n2)c1 | inconclusive: 15.8 µM [activator, single point]
CC(C)Cn1c(SCC(=O)N2CCc3ccccc3C2)nc2cc(Cl)ccc2c1=O | inactive
O=C1c2cccnc2C(=O)N1Cc1ccccc1 | inactive
O=C1OC(C(=O)Nc2ccccc2)Cc2ccccc21 (stereo not given) | inactive
O=C(Nc1ccccc1N1CCCC1)c1ccc(Cl)cc1Cl | inconclusive: 15.8 µM [activator, partial curve]
COc1ccc(-c2nc(-c3ccc(O)cc3O)cs2)cc1OC | inconclusive: 11.2 µM [activator, partial curve]
O=C(OCCc1cc2ccccc2c(=O)o1)c1ccc(F)cc1 | inconclusive: 3.55 µM [activator, partial curve]
CCCCCn1c(=O)[nH]c2cc(C(=O)NCCCN(C)Cc3ccccc3)ccc2c1=O | inconclusive: 35.5 µM [activator, single point]
CCNc1nc(NCC)nc(-n2nc(C)cc2C)n1 | inactive
O=c1n(Cc2ccccc2F)c2ccccc2n1Cc1ccccc1F | inconclusive: 12.6 µM [activator, partial curve]
COC(=O)[C@H]1[C@H]2C[C@@H]3c4[nH]c5cc(OC)ccc5c4CCN3C[C@H]2C[C@@H](OC(=O)c2cc(OC)c(OC)c(OC)c2)[C@@H]1OC | inconclusive: 20.6 µM [activator, single point]
N/C(Cc1nc(-c2ccc(Br)cc2)cs1)=N\O | inconclusive: 14.1 µM [activator, partial curve]
Cc1ccc(Cl)cc1NC(=O)c1cnn2c1NC(c1ccco1)CC2C(F)(F)F (stereo not given) | inconclusive: 10 µM [activator, partial curve]
Cc1ccc(C(=O)NC(=S)Nc2ccccc2N2CCCC2)cc1[N+](=O)[O-] | inconclusive: 22.4 µM [activator, single point]
CCCCNc1nc(-c2ccccc2)cc(C(F)(F)F)c1C(N)=O | inconclusive: 31.6 µM [activator, single point]
COc1ccnc2c1c(=O)n(Cc1c(F)cccc1Cl)c(=O)n2C | inconclusive: 8.91 µM [activator, partial curve]

Compound | Potency
CCCCC(=O)Nc1cccc(-c2nnc(-c3ccccc3)o2)c1 | inconclusive: 35.5 µM [activator, single point]
CN(/N=C/c1ccc(O)cc1O)c1nc(-c2ccccc2)cc(-c2ccccc2)n1 | inconclusive: 10 µM [activator, partial curve]
COCCCNc1nc2ccccc2nc1NS(=O)(=O)c1ccc(Cl)cc1 | active: 14.1 µM
CCCS(=O)(=O)c1c(S(=O)(=O)CCC)c2c(N)cccn2c1C(=O)c1ccc(Br)cc1 | inconclusive: 12.6 µM [activator, partial curve]
Nc1nc(SCc2ccc(Cl)c(Cl)c2)n[nH]1 | inconclusive: 14.1 µM [activator, single point]
Cc1cc(S(=O)(=O)Nc2ccc3ccccc3c2)c(C)s1 | active: 17.8 µM
COC(=O)C1CCN(C(=O)c2oc3c(Cl)cc(C)cc3c2C)CC1 | inconclusive: 35.5 µM [activator, partial curve]
Cc1ccc(/C=N/NC(=O)CN(Cc2ccccc2)S(=O)(=O)c2ccc3c(c2)OCCO3)cc1 | inconclusive: 35.5 µM [activator, single point]
O=C(Cn1c(=O)sc2ccccc21)Nc1ccc(O)cc1 | inconclusive: 35.5 µM [activator, single point]
N#C/C(=C/c1ccc(Sc2nc3ccccc3[nH]2)o1)c1ccccc1F | inconclusive: 12.6 µM [activator, partial curve]
CCOC(=O)CN(C(=O)CSc1nnc(-c2cccc(OC)c2)o1)c1ccc(F)cc1 | inconclusive: 15.8 µM [activator, partial curve]
O=C(Nc1nc(-c2ccc(Oc3ccccc3)cc2)cs1)C1=COCCO1 | inconclusive: 12.6 µM [activator, partial curve]
COc1ccc(CCNCCC(=O)Nc2c(C)cc(C)cc2C)cc1OC | inactive
CC(Oc1cccc(Cl)c1)C(=O)Nc1cc(S(=O)(=O)N2CCOCC2)ccc1N1CCCCC1 (stereo not given) | inconclusive: 12.6 µM [activator, partial curve]
O=C(c1ccc2ccccc2c1)C1CCCN(C(=O)c2noc3c2CCCC3)C1 (stereo not given) | active: 10 µM
CN(Cc1ccccc1F)c1nc(-c2cccs2)nc2ccccc12 | inconclusive: 35.5 µM [activator, single point]
Cc1nc(C)c(-c2csc(NCc3ccccc3)n2)s1 | inconclusive: 0.562 µM [activator, partial curve, poor fit]
CC(C)Oc1cccc(C(=O)NC2=NCCS2)c1 | inconclusive: 3.55 µM [activator, partial curve]
O=c1c2ccccc2nc(/C=C/c2ccc([N+](=O)[O-])cc2)n1CCCO | inconclusive: 11.2 µM [activator, partial curve]
C/C(=N\NC(=O)c1cccc(Cl)c1)C1C(=O)c2ccccc2C1=O | inconclusive: 12.6 µM [activator, partial curve]
O=[N+]([O-])c1ccc2c(OCc3nnc(-c4ccccc4Br)o3)ncnc2c1 | inactive
Cc1cc(C)cc(Oc2nc3c(C)cccn3c(=O)c2/C=C(\C#N)C(=O)NC2CCS(=O)(=O)C2)c1 (stereo not given) | inconclusive: 12.6 µM [activator, partial curve]
COC(=O)c1ccc(OCC(=O)c2ccccc2)cc1 | inactive
Cc1ccc(CONS(=O)(=O)c2cc(C)ccc2C)cc1 | inconclusive: 11.2 µM [activator, partial curve]

Compound | Potency
COc1ccc(/C=C/C(=O)c2c(C)cc(C)[nH]c2=O)c2ccccc12 | inactive
Cc1ccc(S(=O)(=O)Oc2ccccc2/C=C2\SC(=O)NC2=O)cc1 | inconclusive: 11.2 µM [activator, partial curve]
CC(=O)NC1=C(NC2CCS(=O)(=O)C2)C(=O)c2ccccc2C1=O (stereo not given) | inactive
Cc1ccc([N+](=O)[O-])cc1NC(=O)Nc1onc(C)c1C | inactive
COc1ccc(OC)c(-c2c(=O)n(OCc3ccccc3Br)c3ccccc3[n+]2[O-])c1 | inconclusive: 17.8 µM [activator, partial curve]
COCC(C)NC(=S)NCCc1ccc(Cl)cc1Cl (stereo not given) | inactive
C=C1CCC2C(C)(C)[C@H](O)CC[C@@]2(C)[C@@H]1COc1cc(=O)oc2ccccc12 (stereo not given in full) | active: 14.1 µM
O=C(Nc1nc(-c2cccs2)c(C(=O)C(F)(F)F)s1)c1ccccc1 | inconclusive: 12.6 µM [activator, partial curve]
Nc1sc2c(c1C(=O)NC1CCS(=O)(=O)C1)CCC2 (stereo not given) | inactive
Cc1cc(C(=O)COC(=O)c2ccc(O)cc2)c(C)n1Cc1ccco1 | inconclusive: 22.4 µM [activator, single point]
O=c1c(-c2ccc(O)cc2)coc2cc(O)cc(O)c12 | inconclusive: 23.1 µM [activator, single point]
CCCCC(=O)NC(c1ccc([N+](=O)[O-])cc1)c1c(O)ccc2ccccc12 (stereo not given) | inactive
Cc1ccc(C(=O)CC(=O)c2ccc(C)cc2O)cc1 | inconclusive: 12.6 µM [activator, partial curve]
Cc1ccc(C2=NN(Cc3nnc(-c4ccccc4)o3)C(=O)SC2)cc1 | inconclusive: 20 µM [activator, single point]
Oc1ccc(-c2nc3cnccn3c2Nc2ccc3c(c2)OCCO3)cc1 | inactive
CC(=O)Nc1ccc(C(=O)OCc2ccc(F)cc2)cc1 | inconclusive: 3.16 µM [activator, partial curve, poor fit]
COc1nc(NC2CCCCC2)nc(N2CCCCCC2)n1 | inconclusive: 31.6 µM [activator, single point]
CN1CCN(c2ccc(NC(=O)N3CCc4ccccc43)cc2)CC1 | inactive
CC(C)CN(C(=O)c1ccc([N+](=O)[O-])s1)c1c(N)n(Cc2ccccc2)c(=O)[nH]c1=O | inactive
O=C(CSc1cccc2cccnc12)OCC(=O)c1ccc(Br)cc1 | inactive
Clc1cccc(CN2CCSCC2)c1 | inactive
CC1CCCC(C)N1C(=O)c1cccc2c1-c1ccccc1/C2=N/O (stereo not given) | inconclusive: 17.8 µM [activator, single point]

Quoted at random: three entries already listed, in no set order.
Compound | Potency
COC(=O)c1ccc(OCC(=O)c2ccccc2)cc1 | inactive
CC(C)CN(C(=O)c1ccc([N+](=O)[O-])s1)c1c(N)n(Cc2ccccc2)c(=O)[nH]c1=O | inactive
CC1CCCC(C)N1C(=O)c1cccc2c1-c1ccccc1/C2=N/O (stereo not given) | inconclusive: 17.8 µM [activator, single point]
